These are yes or no findings as the source states them, for the method shown. Binding seen in cells or lysates may run through a third protein. Some entries that bind do so weakly or less than the wild type. Tags and fused reporters may be left off the sequences shown.
Target: HA-p65 (full-length), Q04206
Assay: co-IP
Settings: remark: other sources report otherwise

B1: Flag-NSD2, O96028 1-1365 (enzyme)
chain: MEFSIKQSPLSVQSVVKCIKMKQAPEILGSANGKTPSCEVNRECSVFLSKAQLSSSLQEGVMQKFNGHDALPFIPADKLKDLTSRVFNGEPGAHDAKLRFESQEMKGIGTPPNTTPIKNGSPEIKLKITKTYMNGKPLFESSICGDSAADVSQSEENGQKPENKARRNRKRSIKYDSLLEQGLVEAALVSKISSPSDKKIPAKKESCPNTGRDKDHLLKYNVGDLVWSKVSGYPWWPCMVSADPLLHSYTKLKGQKKSARQYHVQFFGDAPERAWIFEKSLVAFEGEGQFEKLCQESAKQAPTKAEKIKLLKPISGKLRAQWEMGIVQAEEAASMSVEERKAKFTFLYVGDQLHLNPQVAKEAGIAAESLGEMAESSGVSEEAAENPKSVREECIPMKRRRRAKLCSSAETLESHPDIGKSTPQKTAEADPRRGVGSPPGRKKTTVSMPRSRKGDAASQFLVFCQKHRDEVVAEHPDASGEEIEELLRSQWSLLSEKQRARYNTKFALVAPVQAEEDSGNVNGKKRNHTKRIQDPTEDAEAEDTPRKRLRTDKHSLRKRDTITDKTARTSSYKAMEAASSLKSQAATKNLSDACKPLKKRNRASTAASSALGFSKSSSPSASLTENEVSDSPGDEPSESPYESADETQTEVSVSSKKSERGVTAKKEYVCQLCEKPGSLLLCEGPCCGAFHLACLGLSRRPEGRFTCSECASGIHSCFVCKESKTDVKRCVVTQCGKFYHEACVKKYPLTVFESRGFRCPLHSCVSCHASNPSNPRPSKGKMMRCVRCPVAYHSGDACLAAGCSVIASNSIICTAHFTARKGKRHHAHVNVSWCFVCSKGGSLLCCESCPAAFHPDCLNIEMPDGSWFCNDCRAGKKLHFQDIIWVKLGNYRWWPAEVCHPKNVPPNIQKMKHEIGEFPVFFFGSKDYYWTHQARVFPYMEGDRGSRYQGVRGIGRVFKNALQEAEARFREIKLQREARETQESERKPPPYKHIKVNKPYGKVQIYTADISEIPKCNCKPTDENPCGFDSECLNRMLMFECHPQVCPAGEFCQNQCFTKRQYPETKIIKTDGKGWGLVAKRDIRKGEFVNEYVGELIDEEECMARIKHAHENDITHFYMLTIDKDRIIDAGPKGNYSRFMNHSCQPNCETLKWTVNGDTRVGLFAVCDIPAGTELTFNYNLDCLGNEKTVCRCGASNCSGFLGDRPKTSTTLSSEEKGKKTKKKTRRRRAKGEGKRQSEDECFRCGDGGQLVLCDRKFCTKAYHLSCLGLGKRPFGKWECPWHHCDVCGKPSTSFCHLCPNSFCKEHQDGTAFSCTPDGRSYCCEHDLGAASVRSTKTEKPPPEPGKPKGKRRRRRGWRRVTEGK
Question: With B1 as the binder, how does the binding read?
Answer: binds
